The values that follow come from patent US6849271B2, “Microcapsule matrix microspheres, absorption-enhancing pharmaceutical compositions and methods” (Verion, Inc., priority 2001, dated 2005).

Values joined by “and” are separate entries in the source; they are usually repeats but may differ in a detail not shown here. Equal values may be shown once.

The nature of data set [1]: Pharmacokinetic profiles of nifedipine formulations in male rats (first study). The note with it: individual rats.
For data set [2] the following is noted: cited from earlier work.

With `COC(=O)C1=C(C)NC(C)=C(C(=O)OC)C1c1ccccc1[N+](=O)[O-]` [nifedipine, 1,4-Dihydro-2,6-dimethyl-4-(2-nitrophenyl)-3,5-pyridinedicarboxylic acid dimethyl ester], in data set [1] (intravenous 0.1 mg/kg), the AUCinf stood at 81.4 ng·h/mL; the Cmax was 223 ng/mL and 255 ng/mL. The compound also yielded a Cmax in data set [1] (male, Sprague-Dawley, rat, in vivo, iv, 0.1 mg/kg, Cmax) of 230 ng/mL. In data set [2] (human), the “absorption from the human gastro-intestinal tract” value is listed as “over 90%” and the systemic bioavailability is recorded as 45-70%. Also, in data set [2] (in vivo), the “steady state volume of distribution” value was 0.3 to 1.2 L/kg. In addition, the “metabolism by oxidation to the pyridine (hydroxycarboxylic acid) metabolite” value in data set [2] (liver, cytochrome P450) was 70-95%.
